Data: paper PMC3372538
No constants are given. Whether binding was seen depends on the method and setting. Binding seen in cells or lysates may run through a third protein. Some entries that bind do so weakly or less than the wild type. Tags and fused reporters may be left off the sequences shown.

Amino acid sequences for entries named in this document (tags omitted).
UniProt P53350: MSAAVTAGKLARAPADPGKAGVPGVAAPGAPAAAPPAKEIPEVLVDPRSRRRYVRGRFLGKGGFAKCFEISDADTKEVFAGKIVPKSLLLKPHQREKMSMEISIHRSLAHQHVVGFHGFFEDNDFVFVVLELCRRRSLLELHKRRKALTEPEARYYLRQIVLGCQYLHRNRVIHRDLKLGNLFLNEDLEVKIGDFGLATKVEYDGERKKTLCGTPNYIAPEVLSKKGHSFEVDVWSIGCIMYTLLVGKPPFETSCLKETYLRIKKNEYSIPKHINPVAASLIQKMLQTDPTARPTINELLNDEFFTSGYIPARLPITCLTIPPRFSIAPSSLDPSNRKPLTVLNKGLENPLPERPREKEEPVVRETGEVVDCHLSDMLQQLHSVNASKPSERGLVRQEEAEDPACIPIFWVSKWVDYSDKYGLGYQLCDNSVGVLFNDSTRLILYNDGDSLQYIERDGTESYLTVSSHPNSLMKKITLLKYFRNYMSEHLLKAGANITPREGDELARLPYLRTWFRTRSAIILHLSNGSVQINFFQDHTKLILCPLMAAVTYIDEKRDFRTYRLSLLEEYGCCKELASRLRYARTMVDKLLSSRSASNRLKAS

Key:
[1] = target: T1, Flag-tagged nephrocystin-1 (Flag.NPHP1) (human) (UniProt O15259); assay: co-IP; both partners overexpressed with tags in co-transfected HEK293T cells; lysis in CelLytic M with protease and phosphatase inhibitors; lysates incubated 2 h with anti-Flag M2 affinity gel, washed, Western blot
T1 sequence: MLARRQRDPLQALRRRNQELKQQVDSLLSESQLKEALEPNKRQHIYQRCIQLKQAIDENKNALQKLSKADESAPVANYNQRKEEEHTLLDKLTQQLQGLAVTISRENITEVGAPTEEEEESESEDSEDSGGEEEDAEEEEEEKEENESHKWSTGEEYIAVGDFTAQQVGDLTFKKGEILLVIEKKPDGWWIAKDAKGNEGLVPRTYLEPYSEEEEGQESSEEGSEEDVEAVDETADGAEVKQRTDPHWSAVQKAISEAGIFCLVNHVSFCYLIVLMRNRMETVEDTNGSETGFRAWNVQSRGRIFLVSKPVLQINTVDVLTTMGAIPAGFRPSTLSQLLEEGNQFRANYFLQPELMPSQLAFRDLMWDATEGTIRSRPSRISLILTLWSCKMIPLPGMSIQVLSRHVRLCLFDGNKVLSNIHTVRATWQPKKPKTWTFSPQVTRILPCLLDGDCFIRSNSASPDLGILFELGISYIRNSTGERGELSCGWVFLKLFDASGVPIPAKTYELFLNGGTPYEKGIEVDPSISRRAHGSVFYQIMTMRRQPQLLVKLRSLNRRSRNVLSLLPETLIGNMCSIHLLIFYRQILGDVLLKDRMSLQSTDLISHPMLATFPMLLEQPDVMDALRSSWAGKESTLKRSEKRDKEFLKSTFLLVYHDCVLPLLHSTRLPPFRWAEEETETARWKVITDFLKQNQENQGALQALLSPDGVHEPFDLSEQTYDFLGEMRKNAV

[2] = target: T2, Flag.NPHP-481-732 (human) (UniProt O15259); assay: as above
T2 sequence: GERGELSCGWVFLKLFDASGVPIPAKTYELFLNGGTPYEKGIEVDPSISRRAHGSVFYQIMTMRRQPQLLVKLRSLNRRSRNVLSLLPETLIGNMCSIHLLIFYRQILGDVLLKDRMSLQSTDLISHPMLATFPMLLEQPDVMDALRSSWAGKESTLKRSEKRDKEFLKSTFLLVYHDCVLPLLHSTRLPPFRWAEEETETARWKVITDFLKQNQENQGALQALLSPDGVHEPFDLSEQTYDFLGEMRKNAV

[3] = target: T3, Flag.NPHP1-237-670 (human) (UniProt O15259); assay: as above
T3 sequence: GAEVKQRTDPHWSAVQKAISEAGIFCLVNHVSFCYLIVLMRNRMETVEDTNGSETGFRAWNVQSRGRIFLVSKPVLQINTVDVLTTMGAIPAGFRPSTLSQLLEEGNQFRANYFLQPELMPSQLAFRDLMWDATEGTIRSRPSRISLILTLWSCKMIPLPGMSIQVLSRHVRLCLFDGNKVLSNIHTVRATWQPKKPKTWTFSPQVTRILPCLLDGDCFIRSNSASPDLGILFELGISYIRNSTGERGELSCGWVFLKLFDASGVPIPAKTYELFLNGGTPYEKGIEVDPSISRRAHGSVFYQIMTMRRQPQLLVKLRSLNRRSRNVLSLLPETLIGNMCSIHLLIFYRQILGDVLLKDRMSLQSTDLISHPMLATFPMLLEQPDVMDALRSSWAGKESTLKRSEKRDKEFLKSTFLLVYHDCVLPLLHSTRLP

[4] = target: T1, Flag-tagged nephrocystin-1 (Flag.NPHP1) (human); assay: co-IP; Flag-tagged bait overexpressed in HEK293T cells, endogenous Plk1 as prey; anti-Flag M2 affinity gel 2 h, Western blot with an antibody against Plk1

| Substance | binding [1] | binding [2] | binding [3] | binding [4] |
| --- | --- | --- | --- | --- |
| Myc-tagged Polo-like kinase 1 (myc.PLK1) (from UniProt P53350 1-603) (enzyme) | binds | binds | binds | – |
| endogenous Polo-like kinase 1 (Plk1) (from UniProt P53350 1-603) (enzyme) | – | – | – | binds |
